In article PMC11540436:
No constants are given. Whether binding was seen depends on the method and setting. Binding seen in cells or lysates may run through a third protein. Here binding means that the protein was enriched with, or labelled near, the bait; the list need not be complete.

The chains behind the UniProt entries cited, without tags or fusion partners.
UniProt Q6EVK6: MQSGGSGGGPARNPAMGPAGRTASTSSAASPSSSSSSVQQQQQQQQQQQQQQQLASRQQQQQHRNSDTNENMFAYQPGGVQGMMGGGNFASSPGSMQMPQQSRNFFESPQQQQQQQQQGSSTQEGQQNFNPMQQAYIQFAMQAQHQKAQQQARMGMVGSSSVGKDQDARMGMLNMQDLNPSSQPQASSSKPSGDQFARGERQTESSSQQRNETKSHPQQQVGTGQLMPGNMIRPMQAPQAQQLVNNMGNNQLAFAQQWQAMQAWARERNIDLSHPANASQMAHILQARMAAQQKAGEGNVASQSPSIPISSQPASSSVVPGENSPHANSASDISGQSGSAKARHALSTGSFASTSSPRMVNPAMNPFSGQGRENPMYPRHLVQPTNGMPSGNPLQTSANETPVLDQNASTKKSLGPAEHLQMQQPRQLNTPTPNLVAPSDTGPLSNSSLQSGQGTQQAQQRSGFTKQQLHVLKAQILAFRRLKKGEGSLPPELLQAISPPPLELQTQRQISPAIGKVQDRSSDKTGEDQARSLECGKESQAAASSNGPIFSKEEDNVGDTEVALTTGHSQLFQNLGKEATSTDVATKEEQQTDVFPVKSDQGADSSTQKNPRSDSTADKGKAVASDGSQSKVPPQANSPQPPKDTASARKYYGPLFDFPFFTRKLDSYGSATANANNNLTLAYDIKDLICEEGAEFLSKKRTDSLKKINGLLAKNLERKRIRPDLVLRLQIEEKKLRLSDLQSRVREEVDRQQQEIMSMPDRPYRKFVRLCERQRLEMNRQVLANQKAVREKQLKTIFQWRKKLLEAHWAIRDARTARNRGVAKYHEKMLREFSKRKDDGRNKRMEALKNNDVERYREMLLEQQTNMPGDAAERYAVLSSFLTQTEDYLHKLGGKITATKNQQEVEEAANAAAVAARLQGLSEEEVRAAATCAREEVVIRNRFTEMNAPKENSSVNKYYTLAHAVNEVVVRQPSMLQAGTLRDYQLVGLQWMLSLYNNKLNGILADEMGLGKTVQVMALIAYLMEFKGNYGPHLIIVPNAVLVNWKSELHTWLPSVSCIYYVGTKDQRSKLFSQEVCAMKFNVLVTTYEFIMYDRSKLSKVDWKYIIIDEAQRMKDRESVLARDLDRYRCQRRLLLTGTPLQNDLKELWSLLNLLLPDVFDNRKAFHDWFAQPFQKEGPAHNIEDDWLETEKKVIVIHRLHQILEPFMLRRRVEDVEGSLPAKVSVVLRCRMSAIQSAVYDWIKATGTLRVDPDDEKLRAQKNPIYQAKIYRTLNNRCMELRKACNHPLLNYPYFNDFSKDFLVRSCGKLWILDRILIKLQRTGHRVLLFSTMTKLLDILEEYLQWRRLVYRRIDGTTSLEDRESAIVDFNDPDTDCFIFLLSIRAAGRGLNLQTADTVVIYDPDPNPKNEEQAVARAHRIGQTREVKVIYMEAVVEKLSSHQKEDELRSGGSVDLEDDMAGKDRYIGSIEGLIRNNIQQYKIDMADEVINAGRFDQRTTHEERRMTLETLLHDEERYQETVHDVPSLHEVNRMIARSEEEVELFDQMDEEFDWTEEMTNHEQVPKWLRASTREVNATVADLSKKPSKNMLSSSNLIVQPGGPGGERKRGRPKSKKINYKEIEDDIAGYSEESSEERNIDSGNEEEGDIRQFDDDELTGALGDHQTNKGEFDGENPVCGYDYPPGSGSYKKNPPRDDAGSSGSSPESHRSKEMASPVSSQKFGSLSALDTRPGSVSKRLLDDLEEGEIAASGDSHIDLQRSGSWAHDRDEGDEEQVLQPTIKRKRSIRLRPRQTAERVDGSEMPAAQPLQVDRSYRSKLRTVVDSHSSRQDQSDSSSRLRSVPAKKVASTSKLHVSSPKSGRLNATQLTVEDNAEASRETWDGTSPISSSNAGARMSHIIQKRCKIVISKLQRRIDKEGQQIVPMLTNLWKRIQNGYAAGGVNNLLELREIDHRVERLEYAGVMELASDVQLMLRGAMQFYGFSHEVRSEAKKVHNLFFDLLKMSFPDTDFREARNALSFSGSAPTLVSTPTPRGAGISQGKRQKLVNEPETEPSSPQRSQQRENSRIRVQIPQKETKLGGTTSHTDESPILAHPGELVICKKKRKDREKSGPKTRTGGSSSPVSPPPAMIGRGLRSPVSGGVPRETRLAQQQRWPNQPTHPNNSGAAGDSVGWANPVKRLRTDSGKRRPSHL
UniProt F4JLS1: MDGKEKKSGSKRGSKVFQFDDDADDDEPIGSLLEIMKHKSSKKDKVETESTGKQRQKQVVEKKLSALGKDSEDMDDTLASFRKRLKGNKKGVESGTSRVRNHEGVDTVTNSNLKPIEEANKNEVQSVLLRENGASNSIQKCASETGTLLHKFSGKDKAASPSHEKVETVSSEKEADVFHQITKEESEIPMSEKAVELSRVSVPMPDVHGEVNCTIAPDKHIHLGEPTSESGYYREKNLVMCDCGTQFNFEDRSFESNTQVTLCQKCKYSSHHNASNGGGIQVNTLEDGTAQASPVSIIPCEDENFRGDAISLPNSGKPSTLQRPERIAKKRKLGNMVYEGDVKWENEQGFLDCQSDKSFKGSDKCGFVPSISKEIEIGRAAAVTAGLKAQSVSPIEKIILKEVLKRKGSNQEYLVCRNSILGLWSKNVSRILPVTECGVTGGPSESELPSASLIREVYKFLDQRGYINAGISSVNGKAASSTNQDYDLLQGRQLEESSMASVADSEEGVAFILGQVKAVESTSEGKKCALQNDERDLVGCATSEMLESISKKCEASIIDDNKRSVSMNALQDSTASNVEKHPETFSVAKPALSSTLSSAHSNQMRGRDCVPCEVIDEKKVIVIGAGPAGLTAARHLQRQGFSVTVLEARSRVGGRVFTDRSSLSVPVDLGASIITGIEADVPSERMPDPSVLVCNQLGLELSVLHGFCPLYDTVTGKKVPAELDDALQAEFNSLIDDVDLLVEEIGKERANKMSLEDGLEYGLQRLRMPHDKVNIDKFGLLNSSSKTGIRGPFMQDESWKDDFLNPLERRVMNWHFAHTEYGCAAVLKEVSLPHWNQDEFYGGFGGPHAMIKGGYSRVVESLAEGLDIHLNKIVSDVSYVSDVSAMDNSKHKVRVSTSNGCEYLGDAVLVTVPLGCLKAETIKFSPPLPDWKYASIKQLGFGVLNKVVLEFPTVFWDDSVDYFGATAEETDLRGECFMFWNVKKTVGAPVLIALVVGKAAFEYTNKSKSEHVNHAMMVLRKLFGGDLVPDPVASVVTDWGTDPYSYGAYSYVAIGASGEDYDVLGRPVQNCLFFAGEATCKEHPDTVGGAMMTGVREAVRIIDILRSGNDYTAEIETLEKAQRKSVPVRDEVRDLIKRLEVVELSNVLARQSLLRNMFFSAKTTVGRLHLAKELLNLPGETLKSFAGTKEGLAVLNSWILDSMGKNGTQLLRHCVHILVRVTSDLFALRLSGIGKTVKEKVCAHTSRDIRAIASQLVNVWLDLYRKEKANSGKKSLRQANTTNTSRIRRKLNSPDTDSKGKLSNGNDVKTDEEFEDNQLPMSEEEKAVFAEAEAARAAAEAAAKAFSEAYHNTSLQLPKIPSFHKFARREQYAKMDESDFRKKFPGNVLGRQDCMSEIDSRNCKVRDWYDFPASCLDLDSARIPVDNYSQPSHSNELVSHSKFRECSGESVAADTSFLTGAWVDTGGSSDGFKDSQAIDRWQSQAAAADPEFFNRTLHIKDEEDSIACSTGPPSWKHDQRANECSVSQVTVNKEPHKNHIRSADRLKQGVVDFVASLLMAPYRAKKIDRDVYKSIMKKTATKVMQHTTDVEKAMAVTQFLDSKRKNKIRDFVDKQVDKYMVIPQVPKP
UniProt Q9C5T4: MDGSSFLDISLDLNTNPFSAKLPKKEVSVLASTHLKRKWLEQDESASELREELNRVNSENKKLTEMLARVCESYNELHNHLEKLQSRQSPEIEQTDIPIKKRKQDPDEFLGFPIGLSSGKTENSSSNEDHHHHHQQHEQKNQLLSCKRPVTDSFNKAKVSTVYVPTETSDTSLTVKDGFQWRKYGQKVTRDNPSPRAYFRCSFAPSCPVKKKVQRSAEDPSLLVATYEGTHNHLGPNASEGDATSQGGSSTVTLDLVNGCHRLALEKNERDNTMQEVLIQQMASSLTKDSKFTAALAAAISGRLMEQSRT

T1: NPR1-3xHA-TurboID (Arabidopsis thaliana), P93002
T1 chain: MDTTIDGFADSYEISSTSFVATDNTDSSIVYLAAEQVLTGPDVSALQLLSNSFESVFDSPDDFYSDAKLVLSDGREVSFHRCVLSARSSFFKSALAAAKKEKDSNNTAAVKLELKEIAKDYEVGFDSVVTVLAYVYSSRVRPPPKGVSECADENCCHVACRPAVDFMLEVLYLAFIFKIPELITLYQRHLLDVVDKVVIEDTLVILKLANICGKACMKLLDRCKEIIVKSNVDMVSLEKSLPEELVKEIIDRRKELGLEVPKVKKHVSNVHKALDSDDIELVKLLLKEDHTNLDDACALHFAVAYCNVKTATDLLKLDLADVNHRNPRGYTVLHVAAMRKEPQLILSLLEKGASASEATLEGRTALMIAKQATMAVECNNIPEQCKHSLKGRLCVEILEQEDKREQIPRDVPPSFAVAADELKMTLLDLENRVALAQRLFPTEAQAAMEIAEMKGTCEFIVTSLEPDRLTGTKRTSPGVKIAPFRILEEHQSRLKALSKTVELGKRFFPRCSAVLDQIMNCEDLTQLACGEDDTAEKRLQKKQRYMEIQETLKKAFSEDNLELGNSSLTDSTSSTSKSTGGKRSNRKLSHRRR

B1: NPR1-like protein 4 (protein, UniProt Q5ICL9 1-574)
chain: MAATAIEPSSSISFTSSHLSNPSPVVTTYHSAANLEELSSNLEQLLTNPDCDYTDAEIIIEEEANPVSVHRCVLAARSKFFLDLFKKDKDSSEKKPKYQMKDLLPYGNVGREAFLHFLSYIYTGRLKPFPIEVSTCVDSVCAHDSCKPAIDFAVELMYASFVFQIPDLVSSFQRKLRNYVEKSLVENVLPILLVAFHCDLTQLLDQCIERVARSDLDRFCIEKELPLEVLEKIKQLRVKSVNIPEVEDKSIERTGKVLKALDSDDVELVKLLLTESDITLDQANGLHYAVAYSDPKVVTQVLDLDMADVNFRNSRGYTVLHIAAMRREPTIIIPLIQKGANASDFTFDGRSAVNICRRLTRPKDYHTKTSRKEPSKYRLCIDILEREIRRNPLVSGDTPTCSHSMPEDLQMRLLYLEKRVGLAQLFFPAEANVAMDVANVEGTSECTGLLTPPPSNDTTENLGKVDLNETPYVQTKRMLTRMKALMKTVETGRRYFPSCYEVLDKYMDQYMDEEIPDMSYPEKGTVKERRQKRMRYNELKNDVKKAYSKDKVARSCLSSSSPASSLREALENPT
B2: NIM1-interacting 1 (protein, UniProt Q9FNZ5 1-142)
chain: MYPKQFSLYNYSLETMSKDENVESKETIRVDKRVREDEEEEEEKKIDTFFKLIKHYQEARKRRREELAENSGVVRRKSNGGERSGIVVPAFQPEDFSQCRTGLKPPLMFVSDHKEENTKVEQEEDQTEERNEDKALDLNLAL
B3: NPR1-like protein 3, Q8L746 1-586 (protein)
chain: MATLTEPSSSLSFTSSHFSYGSIGSNHFSSSSASNPEVVSLTKLSSNLEQLLSNSDCDYSDAEIIVDGVPVGVHRCILAARSKFFQDLFKKEKKISKTEKPKYQLREMLPYGAVAHEAFLYFLSYIYTGRLKPFPLEVSTCVDPVCSHDCCRPAIDFVVQLMYASSVLQVPELVSSFQRRLCNFVEKTLVENVLPILMVAFNCKLTQLLDQCIERVARSDLYRFCIEKEVPPEVAEKIKQLRLISPQDEETSPKISEKLLERIGKILKALDSDDVELVKLLLTESDITLDQANGLHYSVVYSDPKVVAEILALDMGDVNYRNSRGYTVLHFAAMRREPSIIISLIDKGANASEFTSDGRSAVNILRRLTNPKDYHTKTAKGRESSKARLCIDILEREIRKNPMVLDTPMCSISMPEDLQMRLLYLEKRVGLAQLFFPTEAKVAMDIGNVEGTSEFTGLSPPSSGLTGNLSQVDLNETPHMQTQRLLTRMVALMKTVETGRRFFPYGSEVLDKYMAEYIDDDILDDFHFEKGSTHERRLKRMRYRELKDDVQKAYSKDKESKIARSCLSASSSPSSSSIRDDLHNTT

Biological target: NPR1-3xHA-TurboID (Arabidopsis thaliana) (UniProt P93002)
Experiment: proximity labelling; TurboID in stable transgenic Arabidopsis; 1 mM SA, 1 h later 50 mM biotin for 3 h; streptavidin beads, mild and harsh washes; label-free quantification LC-MS/MS against the control YFP-YFP-TbID
Details: not given

binding, binds:
BRAHMA (endogenous) (from UniProt Q6EVK6 1-2193)
LSD1-like 3 (endogenous) (from UniProt F4JLS1 1-1628)
WRKY18 (from UniProt Q9C5T4 1-310)
B1
B2

Biological target: T1, NPR1-3xHA-TurboID (Arabidopsis …)
Experiment: as above
Details: remark: other sources report otherwise

binding, binds:
B3
